Results from patent publication US20130184211A1.
Results are given in words; binding and its absence hold for the method and conditions named. Binding can be weak; no strength is given.

Amino acid sequences for entries named in this document (tags omitted). A change or cut given only in a name is not applied to a line headed by its entry.
UniProt O95750: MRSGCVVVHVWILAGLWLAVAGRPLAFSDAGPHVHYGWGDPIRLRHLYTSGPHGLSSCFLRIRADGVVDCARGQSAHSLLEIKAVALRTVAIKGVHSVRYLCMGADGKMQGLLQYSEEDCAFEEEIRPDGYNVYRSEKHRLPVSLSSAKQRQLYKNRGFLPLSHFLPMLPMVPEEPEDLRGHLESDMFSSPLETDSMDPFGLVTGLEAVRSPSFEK
UniProt Q9NSA1: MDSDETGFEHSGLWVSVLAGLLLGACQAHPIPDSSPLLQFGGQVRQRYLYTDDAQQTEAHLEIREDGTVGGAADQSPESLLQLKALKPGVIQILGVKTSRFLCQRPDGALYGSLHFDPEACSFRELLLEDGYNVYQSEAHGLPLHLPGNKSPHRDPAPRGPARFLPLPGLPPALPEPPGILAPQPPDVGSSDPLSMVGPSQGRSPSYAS
UniProt Q99N32: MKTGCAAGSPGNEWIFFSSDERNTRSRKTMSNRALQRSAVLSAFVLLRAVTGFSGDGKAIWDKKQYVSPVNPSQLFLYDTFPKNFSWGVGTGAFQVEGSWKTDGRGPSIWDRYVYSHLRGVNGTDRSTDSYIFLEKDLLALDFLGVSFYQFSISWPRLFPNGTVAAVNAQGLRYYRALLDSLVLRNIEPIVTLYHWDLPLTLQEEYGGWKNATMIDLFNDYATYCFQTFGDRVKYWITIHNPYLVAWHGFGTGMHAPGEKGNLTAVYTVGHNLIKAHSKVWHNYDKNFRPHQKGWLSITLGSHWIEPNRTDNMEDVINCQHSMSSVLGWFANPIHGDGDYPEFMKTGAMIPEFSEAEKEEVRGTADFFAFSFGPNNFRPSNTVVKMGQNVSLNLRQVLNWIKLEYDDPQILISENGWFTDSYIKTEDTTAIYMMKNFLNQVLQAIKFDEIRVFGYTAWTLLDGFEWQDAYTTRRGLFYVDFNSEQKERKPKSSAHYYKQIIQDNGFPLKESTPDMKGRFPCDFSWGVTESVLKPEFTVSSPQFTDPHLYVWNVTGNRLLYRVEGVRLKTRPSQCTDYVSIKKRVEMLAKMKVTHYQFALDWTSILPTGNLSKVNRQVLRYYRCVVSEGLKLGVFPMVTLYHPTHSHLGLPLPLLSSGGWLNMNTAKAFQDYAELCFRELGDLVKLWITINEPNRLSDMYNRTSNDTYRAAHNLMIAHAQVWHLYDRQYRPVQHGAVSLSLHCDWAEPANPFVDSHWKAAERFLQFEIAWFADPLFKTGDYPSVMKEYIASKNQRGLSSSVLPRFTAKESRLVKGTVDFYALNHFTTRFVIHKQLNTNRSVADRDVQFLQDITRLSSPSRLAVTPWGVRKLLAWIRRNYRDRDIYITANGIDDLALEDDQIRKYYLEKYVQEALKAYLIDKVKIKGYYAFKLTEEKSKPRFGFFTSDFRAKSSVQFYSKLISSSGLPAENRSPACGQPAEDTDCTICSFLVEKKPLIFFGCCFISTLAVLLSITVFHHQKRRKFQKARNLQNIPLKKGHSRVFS

Columns and labels:
[1] = molecular target: human FGF19 (R23 to K216), FGF19^23-216 (human) (UniProt O95750); experiment: SPR, FGF19^23-216 immobilized, 15 nM FGFR1c-βKlotho complex injected
[2] = molecular target: human FGF21 (H29 to S209), FGF21^29-209 (human) (UniProt Q9NSA1); experiment: SPR, FGF21^29-209 immobilized, 15 nM FGFR1c-βKlotho complex injected
[3] = molecular target: human FGF19 (R23 to K216), FGF19^23-216 (human) (UniProt O95750); experiment: SPR; FGF19^23-216 immobilized, FGFR1c-βKlotho complex injected with FGF23^180-251 (10:1)
[4] = molecular target: human FGF21 (H29 to S209), FGF21^29-209 (human) (UniProt Q9NSA1); experiment: SPR; FGF21^29-209 immobilized, FGFR1c-βKlotho complex injected with FGF23^180-251 (10:1)

Measured: binding

1:1 complex of the ectodomains of FGFR1c and βKlotho (from UniProt Q99N32 53-995) (receptor)
binds: [1] | [2] | [3] | [4]
